{"source": "patent US4798898A", "about": "“Antitussive and mucus regulating 2-substituted thiazolidines” (Boehringer Biochemia Robin S.p.A., priority 1984, dated 1989)", "tested_on": "cough induced by citric acid aerosol in guinea pigs", "experiment": "Guinea pig cough test (citric acid aerosol, Charlier procedure)", "type": "in vivo", "description": "The techniques described by Charlier et al. (Arch. Int. Pharmacodyn. 134, 306, 1961) and by Stefko et al. (J. Pharm. Exp. Therap., 108, 217, 1953), adapted with minor modifications, are used to investigate the antitussive properties of the compounds of the invention. Codeine phosphate is used as positive reference compound.\nAccording to the Charlier procedure guinea pigs are exposed to a citric acid aerosol (7.5%) and cough is recorded 60 minutes after the antitussive treatment by i.p. route. Male animals of 300-400 g pigs are placed in perspex box (20×30×30 cm) connected to an aerosol compressor; the animals are subjected to a citric acid saturated atmosphere, 60 minutes after the i.p. injection of a compound of the invention (0.1 and 0.3M solutions; 1 ml/kg).\nThe total number of cough strokes and the delay of the first cough are recorded during the first five minutes.\nFive guinea pigs are used for each dose level and the results are compared with controls (vehicle treatment) and codeine phosphate 0.07M solution (standard treatment).\nED50 and the corresponding delay of first cough stroke are calculated.\nThe data obtained by i.p. administration are confirmed by oral administration.", "note": "The name of at least one read-out is uncertain.", "data": [{"smiles": "COc1ccccc1OCC1SCCN1C(=O)CSC(C)=O", "note": "(centres unmarked) [2-(o-methoxyphenoxy)methyl-3-acetylthioacetylthiazolidine]", "values": [{"measurement": "% delay of the first cough", "setting": "control 100", "result": 350, "unit": "%"}, {"measurement": "% delay of the first cough", "setting": "control 100, listed as 3-Acetylthioacetyl-2-(o-methoxyphenoxymethyl)thiazolidine", "result": 185, "unit": "%"}]}]}
